Source: patent US9527830B2 (Merck Sharp & Dohme Corp., priority 2011, dated 2016)
Some of these results come from one statement about several compounds together.

Molecular target: T1, hROMK1 (Kir1.1) (Homo sapiens, UniProt P48048)
T1 construct: expressed in transfected cells
T1 sequence (P48048 1-391): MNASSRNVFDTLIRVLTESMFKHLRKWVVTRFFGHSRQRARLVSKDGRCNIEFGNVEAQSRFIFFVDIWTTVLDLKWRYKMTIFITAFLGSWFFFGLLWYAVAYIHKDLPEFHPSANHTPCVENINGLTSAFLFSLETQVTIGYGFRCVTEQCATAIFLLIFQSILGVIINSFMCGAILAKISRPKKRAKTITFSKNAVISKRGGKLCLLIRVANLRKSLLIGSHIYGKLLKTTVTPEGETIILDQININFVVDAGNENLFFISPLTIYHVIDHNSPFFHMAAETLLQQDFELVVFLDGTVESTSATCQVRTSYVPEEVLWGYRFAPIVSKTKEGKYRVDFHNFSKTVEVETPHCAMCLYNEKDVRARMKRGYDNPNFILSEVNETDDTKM
Assay: ^86Rb^+ Efflux Assay
Type: cell-based
Details: CHO-DHFR- cells stably expressing hROMK1; potency ranges
Method: Several assays may be used to measure functional inhibition of the ROMK channel by compounds of the instant invention. One primary assay that can be used is a functional ^86Rb^+ efflux assay that measures the ability of ROMK to permeate ^86Rb^+, in the absence or presence of test compound. Under control conditions, cells loaded with ^86Rb^+ and incubated in Rb^+-free medium display a time-dependent efflux of the isotope, the rate of which depends on number of functional channels. When cells are incubated in the presence of a channel inhibitor, efflux of ^86Rb^+ is prevented in a concentration-dependent manner, and IC50 values of inhibition by compounds can be accurately determined. This assay has been established with cell lines expressing either human, rat or dog ROMK channels, and can operate in 96- or 384-well format. Importantly, the human, rat, and dog ^86Rb^+ efflux assays can be carried out in the presence of up to 100% serum allowing, therefore, an accurate estimation of the effect of protein binding on the inhibitory activity of compounds of interest. Another ROMK functional assay makes use of the ability of thallium to permeate through open ROMK channels and increase the fluorescence of a dye previously loaded into the cells. Under control conditions, cells loaded with dye and exposed to thallium-containing medium display a time-dependent increase in fluorescence, the rate of which depends on number of functional channels. When cells are incubated in the presence of a channel inhibitor, the increase in fluorescence is attenuated in a concentration-dependent manner, and IC50 values of inhibition by compounds can be accurately determined. This assay has been established with cell lines expressing either human, or rat ROMK channels, and operates in 384-well format. Another assay for evaluation of the compounds of the instant invention and for evaluation of mechanism of action of compounds of Formula I relies on the measurement of the electrical current that is generated as potassium permeates through the channel. For these electrophysiological experiments, three different platforms, IonWorks, QPatch, or manual patch clamp, are used, depending on the experimental protocol under consideration. IonWorks operates in a 384-well format and allows accurate determination of IC50 values for inhibitors.
CHO-DHFR-cells stably expressing hROMK1 (Kir1.1) were grown at 37° C. in a 10% CO2 humidified incubator in Iscove's Modified Dulbecco's Medium (Gibco 12440) supplemented with HT Supplement, Penicillin/Streptomycin/Glutamine, G418 (500 μg/ml) and 10% FBS. Cells were seeded in Sterile and Tissue Culture Treated Packard CulturPlate White Opaque Microplates at a concentration of 5.0E5-7.0E5 cells/ml—PerkinElmer 6005680 (96-well); Corning 3707 (384 well) in complete media containing 1.5 μCi/ml Rubidium-86. Cells were incubated in 37° C.-10% CO2 incubator overnight. On the day of the experiment, the media was removed and cells washed with low K assay buffer. ^86Rb^+ efflux was initiated after addition of assay buffer±test compound followed by 35 min incubation at room temperature. ROMK-sensitive component of efflux was defined in the presence of 10 mM BaCl2. Assay buffer was removed and transferred to a plate and cells were solubilized in the presence of SDS. Radioactivity associated with assay and cell plate was determined.
• 1. Removed cell media and washed cells with low K assay buffer (126.9 mM NaCl, 4.6 mM KCl, 2 mM CaCl2, 1 mM MgCl2, 10 mM Hepes/NaOH; pH 7.4) • 200 μl for 96-well plate; 70 μl for 384-well plate • 2. Added assay buffer (121.5 mM NaCl, 10 mM KCl, 2 mM CaCl2, 1 mM MgCl2, 10 mM Hepes/NaOH; pH 7.4)±test compound to cells • 100 μl for 96-well plate; 50 μl for 384-well plate • 3. Incubated at ambient temperature (22-24° C.) for 35 min • 4.

Structure (SMILES) | IC50 [nM]
N#Cc1c(F)ccc(CCC2(O)CCN(C(=O)Cc3ccc(-n4cnnn4)cc3)CC2)c1F [Example 34, 2,6-Difluoro-3-[2-(4-hydroxy-1-{[4-(1H-tetrazol-1-yl)phenyl]acetyl}piperidin-4-yl)ethyl]benzonitrile] | ≤ 1100
COc1ccc(C#CC2(O)CCN(C(=O)Cc3ccc(-n4cnnn4)cc3)CC2)c(C)c1C#N [Example 35, 3-[(4-Hydroxy-1-{[4-(1H-tetrazol-1-yl)phenyl]acetyl}piperidin-4-yl)ethynyl]-6-methoxy-2-methylbenzonitrile] | ≤ 1100
Cc1c(C#CC2(O)CCN(C(=O)Cc3ccc(-n4cnnn4)cc3)CC2)ccc(F)c1C#N [Example 36, 6-Fluoro-3-[(4-hydroxy-1-{[4-(1H-tetrazol-1-yl)phenyl]acetyl}piperidin-4-yl)ethynyl]-2-methylbenzonitrile] | ≤ 1100
Cc1c(CCC2(O)CCN(C(=O)Cc3ccc(-n4cnnn4)cc3)CC2)ccc(F)c1C#N [Example 37, 6-Fluoro-3-[2-(4-hydroxy-1-{[4-(1H-tetrazol-1-yl)phenyl]acetyl}piperidin-4-yl)ethyl]-2-methylbenzonitrile] | ≤ 1100
COc1ccc(CCC2(O)CCN(C(=O)Cc3ccc(-n4cnnn4)cc3)CC2)c(C)c1C#N [Example 38, 3-[2-(4-Hydroxy-1-{[4-(1H-tetrazol-1-yl)phenyl]acetyl}piperidin-4-yl)ethyl]-6-methoxy-2-methylbenzonitrile] | ≤ 1100
N#Cc1c(F)ccc(C#CC2(O)CCN(C(=O)Cc3ccc(-n4cnnn4)cc3)CC2)c1Cl [Example 39, 2-Chloro-6-fluoro-3-[(4-hydroxy-1-{[4-(1H-tetrazol-1-yl)phenyl]acetyl}piperidin-4-yl)ethynyl]benzonitrile] | ≤ 1100
N#Cc1c(F)ccc(CCC2(O)CCN(C(=O)Cc3ccc(-n4cnnn4)cc3)CC2)c1Cl [Example 40, 2-Chloro-6-fluoro-3-[2-(4-hydroxy-1-{[4-(1H-tetrazol-1-yl)phenyl]acetyl}piperidin-4-yl)ethyl]benzonitrile] | ≤ 1100
Cc1c(/C=C/C2CCN(C(=O)Cc3ccc(-n4cnnn4)cc3)CC2)ccc2c1COC2=O [Example 41, 4-Methyl-5-[(E)-2-(1-{[4-(1H-tetrazol-1-yl)phenyl]acetyl}piperidin-4-yl)ethenyl]-2-benzofuran-1(3H)-one] | ≤ 1100
Cc1c(C#N)cccc1C#CC1(O)CCN(C(=O)Cc2ccc(-n3cnnn3)cc2)CC1 [Example 43, 3-[(4-Hydroxy-1-{[4-(1H-tetrazol-1-yl)phenyl]acetyl}piperidin-4-yl)ethynyl]-2-methylbenzonitrile] | ≤ 1100
Cc1c(C#N)cccc1CCC1(O)CCN(C(=O)Cc2ccc(-n3cnnn3)cc2)CC1 [Example 44, 3-[2-(4-Hydroxy-1-{[4-(1H-tetrazol-1-yl)phenyl]acetyl}piperidin-4-yl)ethynyl]-2-methylbenzonitrile] | ≤ 1100
COc1ccc(C#CC2(O)CCN(C(=O)Cc3ccc(-n4cnnn4)cc3)CC2)c(F)c1C#N [Example 45, 2-Fluoro-3-[(4-hydroxy-1-{[4-(1H-tetrazol-1-yl)phenyl]acetyl}piperidin-4-yl)ethynyl]-6-methoxybenzonitrile] | ≤ 1100
COc1ccc(CCC2(O)CCN(C(=O)Cc3ccc(-n4cnnn4)cc3)CC2)c(F)c1C#N [Example 46, 2-Fluoro-3-[2-(4-hydroxy-1-{[4-(1H-tetrazol-1-yl)phenyl]acetyl}piperidin-4-yl)ethyl]-6-methoxybenzonitrile] | ≤ 1100
O=C1OCc2cc(/C=C/C3CCN(C(=O)Cc4ccc5c(c4)COC5=O)CC3)ccc21 [Example 47, 5-[(E)-2-{1-[(1-Oxo-1,3-dihydro-2-benzofuran-5-yl)acetyl]piperidin-4-}ethenyl]-2-benzofuran-1(3H)-one] | ≤ 1100
N#Cc1cc(/C=C/C2CCN(C(=O)Cc3ccc4c(c3)COC4=O)CC2)ccc1F [Example 48, 2-Fluoro-5-[(E)-2-{1-[(1-oxo-1,3-dihydro-2-benzofuran-5-yl)acetyl]piperidin-4-yl}ethenyl]benzonitrile] | ≤ 1100
N#Cc1cc(CCC2CCN(C(=O)Cc3ccc4c(c3)COC4=O)CC2)ccc1F [Example 49, 2-Fluoro-5-(2-{1-[(1-oxo-1,3-dihydro-2-benzofuran-5-yl)acetyl]piperidin-4-yl}ethyl)benzonitrile] | ≤ 1100
O=C1OCc2cc(CCC3CCN(C(=O)Cc4ccc5c(c4)COC5=O)CC3)ccc21 [Example 50, 5-(2-{1-[(1-Oxo-1,3-dihydro-2-benzofuran-5-yl)acetyl]piperidin-4-yl}ethyl)-2-benzofuran-1(3H)-one] | ≤ 1100
O=C1OCc2cc(SC3CCN(C(=O)Cc4ccc(-n5cnnn5)cc4)CC3)ccc21 [Example 51, 5-[(1-{[4-(1H-Tetrazol-1-yl)phenyl]acetyl}piperidin-4-yl)sulfanyl]-2-benzofuran-1(3H)-one] | ≤ 1100
COc1cc(CC(=O)N2CCC(/C=C/c3ccc4c(c3)COC4=O)CC2)ccc1C#N [Example 52, 2-Methoxy-4-(2-oxo-2-(4-[(E)-2-(1-oxo-1,3-dihydro-2-benzofuran-5-yl)ethenyl]piperidin-1-yl}ethyl]benzonitrile] | ≤ 1100
COc1cc(CC(=O)N2CCC(CCc3ccc4c(c3)COC4=O)CC2)ccc1C#N [Example 53, 2-Methoxy-4-(2-oxo-2-(4-[2-(1-oxo-1,3-dihydro-2-benzofuran-5-yl)ethyl]piperidin-1-yl}ethyl]benzonitrile] | ≤ 1100
O=C1OCc2cc(CCN3CCC(C(O)Cc4ccc(-n5cnnn5)cc4)CC3)ccc21 (stereo not shown) [Example 54, 5-[2-(4-{1-Hydroxy-2-[4-(1H-tetrazol-1-yl)phenyl]ethyl}piperidin-1-yl)ethyl]-2-benzofuran-1(3H)-one] | ≤ 1100
O=C1OCc2cc(OCC3CCN(C(=O)Cc4ccc(-n5cnnn5)cc4)CC3)ccc21 [Example 55, 5-[(1-{[4-(1H-Tetrazol-1-yl)phenyl]acetyl}piperidin-4-yl)methoxy]-2-benzofuran-1(3H)-one] | ≤ 1100
COc1cc(CC(=O)N2CCC(CCc3ccc4c(c3)COC4=O)CC2)c(F)cc1C#N [Example 56, 5-Fluoro-2-methoxy-4-(2-oxo-2-{4-[2-(1-oxo-1,3-dihydro-2-benzofuran-5-yl)ethyl]piperidin-1-yl}ethyl)benzonitrile] | ≤ 1100
O=C1OCc2c1ccc(CCC1CCN(C(=O)Cc3ccc(-n4cnnn4)cc3)CC1)c2F [Example 57, 4-Fluoro-5-[2-(1-{[4-(1H-tetrazol-1-yl)phenyl]acetyl}piperidin-4-yl)ethyl]-2-benzofuran-1(3H)-one] | ≤ 1100
Cc1c(SC2CCN(C(=O)Cc3ccc(-n4cnnn4)cc3)CC2)ccc2c1COC2=O [Example 58, 4-Methyl-5-[(1-{[4-(1H-tetrazol-1-yl)phenyl]acetyl}piperidin-4-yl)sulfanyl]-2-benzofuran-1(3H)-one] | ≤ 1100
O=C1OCc2c1ccc(CCC1CCN(C(=O)Cc3ccc(-n4cnnn4)cc3)CC1)c2Br [Example 59, 4-Bromo-5-[2-(1-{[4-(1H-tetrazol-1-yl)phenyl]acetyl}piperidin-4-yl)ethyl]-2-benzofuran-1(3H)-one] | ≤ 1100
